These are yes or no findings as the source states them, for the method shown. Binding seen in cells or lysates may run through a third protein. Some results given as binding are weak or reduced against the parent protein; the word gives no strength.
Target: basic leucine zipper 63 (bZIP63) transcription factor, BiFC constructs (UniProt B9DGI8)
Test: split reporter; split YFP (YFP-N 1-155, YFP-C 155-239) constructs co-expressed in hot pepper protoplasts by PEG-mediated transformation; YFP signal read by fluorescence microscopy

binding: binds
B1: basic leucine zipper 63 (bZIP63) transcription factor, BiFC constructs (protein, UniProt B9DGI8 1-314)
chain: MEKVFSDEEISGNHHWSVNGMTSLNRSASEWAFNRFIQESSAAADDGESTTACGVSVSSPPNVPVDSEEYRAFLKSKLNLACAAVAMKRGTFIKPQDTSGRSDNGGANESEQASLASSKATPMMSSAITSGSELSGDEEEADGETNMNPTNVKRVKRMLSNRESARRSRRRKQAHLSELETQVSQLRVENSKLMKGLTDVTQTFNDASVENRVLKANIETLRAKVKMAEETVKRLTGFNPMFHNMPQIVSTVSLPSETSNSPDTTSSQVTTPEIISSGNKGKALIGCKMNRTASMRRVESLEHLQKRIRSVGDQ
